Results from publication PMC10760247.
These are yes or no findings as the source states them, for the method shown. Binding seen in cells or lysates may run through a third protein. Some results given as binding are weak or reduced against the parent protein; the word gives no strength.

Chains of the proteins cited; added tags and fusions are not shown.
UniProt Q9WVA4: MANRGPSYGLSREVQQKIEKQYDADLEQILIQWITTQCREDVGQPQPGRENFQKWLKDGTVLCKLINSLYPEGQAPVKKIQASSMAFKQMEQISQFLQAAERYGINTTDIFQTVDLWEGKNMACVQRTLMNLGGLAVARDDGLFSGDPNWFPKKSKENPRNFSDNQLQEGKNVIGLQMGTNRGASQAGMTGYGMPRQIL

Molecular target: T1, fatty-acid-binding protein 5 (FABP5) (mouse (endogenous in activated CD8+ T cells from C57BL/6J mice)) (UniProt Q05816)
T1 sequence: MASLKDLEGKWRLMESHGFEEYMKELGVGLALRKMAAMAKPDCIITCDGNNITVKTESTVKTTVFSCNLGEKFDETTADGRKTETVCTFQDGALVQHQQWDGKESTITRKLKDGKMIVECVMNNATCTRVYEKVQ
Assay: co-IP; endogenous proteins in lysate of activated mouse CD8+ T cells (Pierce IP Lysis Buffer); goat anti-mouse FABP5 or rabbit anti-mouse Transgelin-2 antibody (isotype IgG controls) overnight at 4°C, Protein A/G magnetic beads; washed with 1X TBS with 0.05% tween-20 and 0.5M NaCl; western blot

binding: binds
Substance: Transgelin 2 (TAGLN2) (from UniProt Q9WVA4 1-199)
